Test: Sensory evaluation of bitter taste masking effect
Assay type: in vivo
Details: 0.1 ml of 0.5% (5000 ppm) solution in water on the tongue
Method: Since leucine has a unique bitter taste, Glc-Leu was examined by sensory evaluation for its bitter taste masking effect. Three test subjects A, B, C took 0.1 ml of a solution of food additive leucine dissolved in water at a concentration of 0.5% (5000 ppm) with a micropipette, dropped the solution on the tongue, and spit it out to confirm the level of the bitter taste of leucine. Sequentially, the three test subjects A, B, C took 0.1 ml of a solution of Glc-Leu dissolved in water at a concentration of 0.5% (5000 ppm) with a micropipette, dropped the solution on the tongue, and spit it out to compare the level of the bitter taste with that of leucine confirmed earlier.

With `CC(C)C[C@H](NC(=O)OC1O[C@H](CO)[C@@H](O)[C@H](O)[C@H]1O)C(=O)O` (stereo partly drawn) [Glc-Leu, N-(α/β-D-glucopyranosyloxycarbonyl)-L-leucine] the “bitter taste compared with leucine, all three test subjects” value was “none of the test subjects felt the bitter taste”.

From patent US10787476B2, “Glycoamino acid and use thereof” (AJINOMOTO CO., INC., priority 2013, dated 2020)
